Here are results for 30 targets from the supplement of paper PMC12819154, “High-throughput peptide-centric local stability assay extends protein–ligand identification to membrane proteins, tissues and bacteria” (Nature Structural & Molecular Biology, 2025).

The chains behind the UniProt entries cited, without tags or fusion partners. Where a name states a change or a piece, a line headed by the entry shows the natural chain unless it says otherwise.
UniProt A5D8V6: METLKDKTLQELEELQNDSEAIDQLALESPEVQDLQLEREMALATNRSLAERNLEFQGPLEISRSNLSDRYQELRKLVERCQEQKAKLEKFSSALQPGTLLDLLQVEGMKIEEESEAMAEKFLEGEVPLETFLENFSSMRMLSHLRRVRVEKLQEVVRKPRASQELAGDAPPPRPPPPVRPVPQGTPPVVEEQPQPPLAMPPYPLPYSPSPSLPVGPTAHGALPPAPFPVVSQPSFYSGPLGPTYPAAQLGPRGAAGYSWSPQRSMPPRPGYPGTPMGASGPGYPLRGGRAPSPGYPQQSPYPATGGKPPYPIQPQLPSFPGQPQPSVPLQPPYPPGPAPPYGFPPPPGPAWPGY
UniProt A1L0T0: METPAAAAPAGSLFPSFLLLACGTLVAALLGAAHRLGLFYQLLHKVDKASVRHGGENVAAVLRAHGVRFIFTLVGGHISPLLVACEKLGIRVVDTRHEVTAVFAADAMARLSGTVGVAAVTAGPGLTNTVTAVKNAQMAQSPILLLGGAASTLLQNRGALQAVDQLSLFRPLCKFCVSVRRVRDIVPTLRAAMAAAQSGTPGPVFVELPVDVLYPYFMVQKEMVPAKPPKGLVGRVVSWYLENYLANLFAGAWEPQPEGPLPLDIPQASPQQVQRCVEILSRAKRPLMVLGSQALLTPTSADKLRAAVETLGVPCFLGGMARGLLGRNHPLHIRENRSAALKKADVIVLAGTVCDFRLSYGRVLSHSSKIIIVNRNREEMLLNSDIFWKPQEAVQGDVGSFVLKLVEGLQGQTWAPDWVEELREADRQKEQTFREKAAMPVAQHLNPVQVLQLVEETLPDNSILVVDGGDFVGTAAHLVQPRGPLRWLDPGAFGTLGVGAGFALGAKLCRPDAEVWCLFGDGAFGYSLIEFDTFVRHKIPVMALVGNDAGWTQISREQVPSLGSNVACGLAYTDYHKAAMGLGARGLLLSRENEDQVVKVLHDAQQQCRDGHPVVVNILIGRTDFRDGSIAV
UniProt A6NDG6: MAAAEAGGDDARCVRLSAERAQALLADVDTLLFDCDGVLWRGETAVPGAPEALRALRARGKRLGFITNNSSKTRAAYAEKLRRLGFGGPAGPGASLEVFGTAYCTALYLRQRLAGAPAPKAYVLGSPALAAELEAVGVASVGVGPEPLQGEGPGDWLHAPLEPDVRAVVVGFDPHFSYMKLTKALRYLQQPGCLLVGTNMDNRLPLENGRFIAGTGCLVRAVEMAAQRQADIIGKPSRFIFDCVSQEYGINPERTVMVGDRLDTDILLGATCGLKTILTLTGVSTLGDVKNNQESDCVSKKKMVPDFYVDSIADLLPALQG
UniProt A4D0V7: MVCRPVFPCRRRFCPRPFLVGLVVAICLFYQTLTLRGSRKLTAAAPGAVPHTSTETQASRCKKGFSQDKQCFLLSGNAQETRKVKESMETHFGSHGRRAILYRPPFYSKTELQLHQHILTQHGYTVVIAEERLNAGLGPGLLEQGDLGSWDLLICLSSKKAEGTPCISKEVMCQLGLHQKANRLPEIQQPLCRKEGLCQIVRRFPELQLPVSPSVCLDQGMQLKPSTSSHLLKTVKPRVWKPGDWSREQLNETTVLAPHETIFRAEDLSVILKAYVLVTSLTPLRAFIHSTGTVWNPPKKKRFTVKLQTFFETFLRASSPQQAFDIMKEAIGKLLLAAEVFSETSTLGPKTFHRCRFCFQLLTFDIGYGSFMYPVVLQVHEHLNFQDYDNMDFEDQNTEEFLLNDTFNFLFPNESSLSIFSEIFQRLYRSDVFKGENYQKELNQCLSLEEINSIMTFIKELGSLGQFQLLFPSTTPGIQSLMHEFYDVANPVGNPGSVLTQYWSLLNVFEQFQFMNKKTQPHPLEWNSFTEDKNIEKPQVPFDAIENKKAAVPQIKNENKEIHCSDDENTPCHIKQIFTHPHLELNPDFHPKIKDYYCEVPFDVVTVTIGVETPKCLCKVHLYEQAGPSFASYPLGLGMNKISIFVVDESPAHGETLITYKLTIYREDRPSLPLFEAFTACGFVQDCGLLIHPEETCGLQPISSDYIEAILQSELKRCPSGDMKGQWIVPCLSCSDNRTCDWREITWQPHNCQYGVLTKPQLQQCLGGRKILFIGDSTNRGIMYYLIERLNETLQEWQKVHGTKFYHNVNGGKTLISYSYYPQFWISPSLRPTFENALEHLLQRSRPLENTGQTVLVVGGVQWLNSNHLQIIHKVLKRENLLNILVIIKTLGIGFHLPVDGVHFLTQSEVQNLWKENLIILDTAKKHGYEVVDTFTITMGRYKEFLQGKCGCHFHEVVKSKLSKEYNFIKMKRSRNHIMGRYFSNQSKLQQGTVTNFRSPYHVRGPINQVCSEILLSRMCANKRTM
UniProt A4D1E1: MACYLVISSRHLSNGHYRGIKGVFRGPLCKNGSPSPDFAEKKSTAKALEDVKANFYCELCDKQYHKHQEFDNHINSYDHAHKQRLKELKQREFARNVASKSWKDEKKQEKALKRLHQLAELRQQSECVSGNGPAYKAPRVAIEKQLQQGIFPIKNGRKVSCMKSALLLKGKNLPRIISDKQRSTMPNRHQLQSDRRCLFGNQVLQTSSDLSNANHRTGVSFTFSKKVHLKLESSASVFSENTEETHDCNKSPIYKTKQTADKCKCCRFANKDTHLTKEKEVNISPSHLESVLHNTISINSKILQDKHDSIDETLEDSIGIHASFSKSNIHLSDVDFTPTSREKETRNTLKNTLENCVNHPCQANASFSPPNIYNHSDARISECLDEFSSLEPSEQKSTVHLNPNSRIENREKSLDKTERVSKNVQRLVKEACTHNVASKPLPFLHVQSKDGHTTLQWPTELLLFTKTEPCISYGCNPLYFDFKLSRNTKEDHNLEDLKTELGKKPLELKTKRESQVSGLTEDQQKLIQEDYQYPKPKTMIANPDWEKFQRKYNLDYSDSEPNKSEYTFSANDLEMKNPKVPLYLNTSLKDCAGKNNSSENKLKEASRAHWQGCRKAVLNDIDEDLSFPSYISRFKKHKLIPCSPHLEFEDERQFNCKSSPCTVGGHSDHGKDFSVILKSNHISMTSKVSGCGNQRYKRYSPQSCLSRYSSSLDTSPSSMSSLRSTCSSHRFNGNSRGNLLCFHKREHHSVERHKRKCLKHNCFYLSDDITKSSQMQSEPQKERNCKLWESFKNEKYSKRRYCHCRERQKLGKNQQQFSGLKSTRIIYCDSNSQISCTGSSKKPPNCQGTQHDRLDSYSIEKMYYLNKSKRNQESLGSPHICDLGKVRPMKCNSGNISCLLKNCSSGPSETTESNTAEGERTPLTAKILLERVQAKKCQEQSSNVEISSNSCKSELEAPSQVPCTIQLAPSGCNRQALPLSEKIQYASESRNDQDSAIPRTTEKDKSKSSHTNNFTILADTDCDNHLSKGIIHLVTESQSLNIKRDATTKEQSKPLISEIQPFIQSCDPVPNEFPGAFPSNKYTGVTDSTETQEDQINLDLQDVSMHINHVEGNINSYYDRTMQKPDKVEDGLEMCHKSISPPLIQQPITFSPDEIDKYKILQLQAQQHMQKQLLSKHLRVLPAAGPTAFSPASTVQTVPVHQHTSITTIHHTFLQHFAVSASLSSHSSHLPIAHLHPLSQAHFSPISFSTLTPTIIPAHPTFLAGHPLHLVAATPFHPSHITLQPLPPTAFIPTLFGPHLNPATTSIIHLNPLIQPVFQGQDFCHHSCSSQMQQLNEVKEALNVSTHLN
UniProt A3KMH1: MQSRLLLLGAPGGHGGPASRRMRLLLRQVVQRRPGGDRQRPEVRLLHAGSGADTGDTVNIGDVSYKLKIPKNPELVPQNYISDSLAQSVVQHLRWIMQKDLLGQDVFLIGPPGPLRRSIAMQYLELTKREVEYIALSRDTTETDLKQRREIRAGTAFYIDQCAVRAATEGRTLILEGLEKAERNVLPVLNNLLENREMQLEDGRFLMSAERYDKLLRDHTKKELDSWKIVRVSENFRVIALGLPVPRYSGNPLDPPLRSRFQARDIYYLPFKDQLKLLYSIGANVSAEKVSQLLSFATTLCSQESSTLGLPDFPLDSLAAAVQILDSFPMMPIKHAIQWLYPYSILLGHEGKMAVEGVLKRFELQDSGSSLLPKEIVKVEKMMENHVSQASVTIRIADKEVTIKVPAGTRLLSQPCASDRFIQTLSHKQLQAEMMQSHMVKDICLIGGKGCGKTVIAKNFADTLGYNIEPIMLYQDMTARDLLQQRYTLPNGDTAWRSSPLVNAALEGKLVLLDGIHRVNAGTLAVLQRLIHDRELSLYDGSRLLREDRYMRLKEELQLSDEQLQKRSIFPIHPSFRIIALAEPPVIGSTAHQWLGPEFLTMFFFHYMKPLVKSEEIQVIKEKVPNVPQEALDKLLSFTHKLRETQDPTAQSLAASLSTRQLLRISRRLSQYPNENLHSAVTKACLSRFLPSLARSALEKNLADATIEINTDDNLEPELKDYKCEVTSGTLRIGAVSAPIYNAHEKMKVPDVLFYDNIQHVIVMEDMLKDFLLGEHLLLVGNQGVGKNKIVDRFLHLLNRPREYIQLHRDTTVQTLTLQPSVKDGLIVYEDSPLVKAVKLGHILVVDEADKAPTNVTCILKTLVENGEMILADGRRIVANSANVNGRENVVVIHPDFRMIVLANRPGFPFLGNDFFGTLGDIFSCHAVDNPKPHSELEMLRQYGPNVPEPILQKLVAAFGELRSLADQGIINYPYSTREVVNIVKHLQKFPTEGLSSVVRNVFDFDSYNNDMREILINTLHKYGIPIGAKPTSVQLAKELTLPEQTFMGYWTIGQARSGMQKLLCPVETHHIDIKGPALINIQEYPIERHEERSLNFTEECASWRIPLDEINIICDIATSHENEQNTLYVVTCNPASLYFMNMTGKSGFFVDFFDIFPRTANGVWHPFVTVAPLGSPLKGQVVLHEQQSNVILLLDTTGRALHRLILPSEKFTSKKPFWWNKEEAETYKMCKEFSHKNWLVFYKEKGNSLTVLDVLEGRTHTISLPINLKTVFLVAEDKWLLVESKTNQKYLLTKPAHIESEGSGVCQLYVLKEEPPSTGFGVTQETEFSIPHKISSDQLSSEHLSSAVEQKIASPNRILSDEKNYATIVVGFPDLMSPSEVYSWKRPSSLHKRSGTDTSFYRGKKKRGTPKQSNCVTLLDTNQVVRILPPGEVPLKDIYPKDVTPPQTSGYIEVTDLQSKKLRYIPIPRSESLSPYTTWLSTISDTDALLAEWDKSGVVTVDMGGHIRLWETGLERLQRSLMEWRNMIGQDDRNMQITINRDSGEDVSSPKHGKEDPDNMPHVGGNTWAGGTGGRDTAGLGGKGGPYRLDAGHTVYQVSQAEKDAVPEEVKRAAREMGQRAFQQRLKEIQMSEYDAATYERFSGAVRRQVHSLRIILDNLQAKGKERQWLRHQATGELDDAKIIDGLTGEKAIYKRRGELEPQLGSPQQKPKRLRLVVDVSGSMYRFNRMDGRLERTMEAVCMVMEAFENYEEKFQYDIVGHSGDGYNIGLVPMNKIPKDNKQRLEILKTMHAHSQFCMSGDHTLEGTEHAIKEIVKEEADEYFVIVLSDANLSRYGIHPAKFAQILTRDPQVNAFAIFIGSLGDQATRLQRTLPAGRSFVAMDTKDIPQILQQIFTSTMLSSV
UniProt A4QPH2, whole entry: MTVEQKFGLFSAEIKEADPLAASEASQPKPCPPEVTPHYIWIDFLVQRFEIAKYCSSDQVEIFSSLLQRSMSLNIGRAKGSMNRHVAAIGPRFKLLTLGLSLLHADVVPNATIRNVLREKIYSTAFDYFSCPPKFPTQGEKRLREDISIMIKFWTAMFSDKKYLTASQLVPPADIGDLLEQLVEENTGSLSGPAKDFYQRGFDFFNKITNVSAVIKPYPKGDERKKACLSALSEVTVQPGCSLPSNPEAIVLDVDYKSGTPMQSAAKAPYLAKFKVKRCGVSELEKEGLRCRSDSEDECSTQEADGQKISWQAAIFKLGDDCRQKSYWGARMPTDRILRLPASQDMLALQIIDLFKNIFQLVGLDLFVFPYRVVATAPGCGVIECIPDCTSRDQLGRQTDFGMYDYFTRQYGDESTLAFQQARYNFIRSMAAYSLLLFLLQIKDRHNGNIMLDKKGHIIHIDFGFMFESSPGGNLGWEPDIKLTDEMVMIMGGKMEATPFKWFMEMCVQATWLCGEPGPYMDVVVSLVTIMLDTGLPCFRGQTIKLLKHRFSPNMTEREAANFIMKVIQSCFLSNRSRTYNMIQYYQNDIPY
UniProt A4D1E9: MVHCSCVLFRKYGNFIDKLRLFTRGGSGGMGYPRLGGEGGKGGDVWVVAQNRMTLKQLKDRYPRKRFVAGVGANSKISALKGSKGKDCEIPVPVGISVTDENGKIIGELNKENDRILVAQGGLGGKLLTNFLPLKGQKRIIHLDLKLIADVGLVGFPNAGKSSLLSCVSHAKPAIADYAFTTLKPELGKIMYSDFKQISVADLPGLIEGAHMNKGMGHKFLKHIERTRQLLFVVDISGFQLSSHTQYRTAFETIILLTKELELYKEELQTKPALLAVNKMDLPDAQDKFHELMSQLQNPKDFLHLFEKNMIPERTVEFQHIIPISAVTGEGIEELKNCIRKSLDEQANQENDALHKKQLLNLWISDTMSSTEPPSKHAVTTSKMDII

The other results are listed elsewhere or left out. Most entries show no effect beyond the scatter of the controls.

Compound in this assay: CN[C@@H]1C[C@H]2O[C@@](C)([C@@H]1OC)n1c3ccccc3c3c4c(c5c6ccccc6n2c5c31)C(=O)NC4 [staurosporine]
In words: log2 fold change of tryptic peptide abundance, ligand vs vehicle (limited proteolysis) (log2 ratio); higher = more trypsin-susceptible (destabilized). As to conditions: ligand concentration: 20 uM; sample: K562 cleared lysate; digestion: 4 min, 22 C (HT-PELSA RT4min, Orbitrap Astral).
Turning to “VPS37C (peptide sequence: METLKDK, peptide start residue: 1) (UniProt A5D8V6)”, the log2 fold change is 0.208.
Consider “A0A096LP55 (peptide sequence: EQCEQLEK, peptide start residue: 35), A0A096LP55”, for which the log2 fold change is -0.133.
In the case of “UniProt A6NCL7 (peptide sequence: EAKEEKR, peptide start residue: 462)”, the log2 fold change is -0.108.
Regarding “A0A6I8PU40 (peptide sequence: AAAYAFAIR, peptide start residue: 65), A0A6I8PU40”, the log2 fold change was -0.129.
The value for “A0A0B4J2A2 (peptide sequence: IIPGFMCQGGDFTR, peptide start residue: 56), A0A0B4J2A2” was 0.101.
Then “ILVBL (peptide sequence: DGHPVVVNILIGR, peptide start residue: 610) (UniProt A1L0T0)”, with -0.191; and “PALM3 (peptide sequence: GGGVVSVVWEGLR, peptide start residue: 214) (UniProt A6NDB9)”, with 0.414.
Then “TARSL2 (peptide sequence: EILLEMFK, peptide start residue: 303) (UniProt A2RTX5)”, with 0.312.
For the target “PGP (peptide sequence: GETAVPGAPEALR, peptide start residue: 42) (UniProt A6NDG6)”, the log2 fold change was -0.0926.
The value for “A0A3B3IS91 (peptide sequence: AAAAQPIGHPDALER, peptide start residue: 86), A0A3B3IS91” was -0.112; that for “CPED1 (peptide sequence: NIEKPQVPFDAIENK, peptide start residue: 534) (UniProt A4D0V7)” was 0.501; that for “UniProt A5PLN9 (peptide sequence: LQTSQLQR, peptide start residue: 291)” was 0.114.
Then “UniProt A1L429 (peptide sequence: STYYWPR, peptide start residue: 7)”, with -0.0478; and “A0A2R8Y4L2 (peptide sequence: GFAFVTFDDHDSVDKIVIQK, peptide start residue: 147), A0A2R8Y4L2”, with 0.287.
“UniProt A4D1E1 (peptide sequence: HQEFDNHINSYDHAHK, peptide start residue: 148)”: the log2 fold change is -0.507.
For “PTPDC1 (peptide sequence: HLLHGYEAR, peptide start residue: 272) (UniProt A2A3K4)”, the log2 fold change came out at 0.924.
The value for “CNOT1 (peptide sequence: YRECHLLVLK, peptide start residue: 1684) (UniProt A5YKK6)” was -0.142; that for “UniProt A3KMH1 (peptide sequence: LDAGHTVYQVSQAEKDAVPEEVKR, peptide start residue: 1590)” was -0.589; that for “A0A024RBG1 (peptide sequence: MKFKPNQTR, peptide start residue: 2), A0A024RBG1” was 0.407.
The value for “A0A494C030 (peptide sequence: RPADTGPVWVPR, peptide start residue: 165)” was -0.115; that for “RCCD1 (peptide sequence: LELSGSASGAAGR, peptide start residue: 60) (UniProt A6NED2)” was -0.308; that for “A0AVF1 (peptide sequence: GVQHTDKR, peptide start residue: 13)” was 0.517.
Then “UHRF1BP1L (peptide sequence: GISFMDYLSDKHLGK, peptide start residue: 960) (UniProt A0JNW5)”, with -0.51; and “UniProt A4QPH2 (peptide sequence: SGTPMQSAAK, peptide start residue: 1791)”, with -0.286; and “A0A1W2PR95 (peptide sequence: AREWDDWK, peptide start residue: 318), A0A1W2PR95”, with -0.257.
As for “BDP1 (peptide sequence: QQVEAAFQSR, peptide start residue: 2438) (UniProt A6H8Y1)”, the log2 fold change is -0.499.
Turning to “GTPBP10 (peptide sequence: QISVADLPGLIEGAHMNK, peptide start residue: 197) (UniProt A4D1E9)”, the log2 fold change stood at 0.311.
The value for “FAM83G (peptide sequence: LAQNARPMTDGR, peptide start residue: 763) (UniProt A6ND36)” was 0.624.
Then “A0A8I5KQE6 (peptide sequence: SDGIYIINLK, peptide start residue: 43), A0A8I5KQE6”, with 0.117.
For “WDR91 (peptide sequence: LPPYVSNMDR, peptide start residue: 227) (UniProt A4D1P6)”, the log2 fold change is 0.133.
